In paper PMC10163288:
Some of the results follow.

B1: il2ra_site2_2erj_sap_34_mot_720936397f2d31669eff21710c18a4fc_0001_000000071_0001_37_51_H_._HHH_b1_04472_0001_0000300015_0000001_0_0001 (protein)
chain: SSSSSDDNSKAALKFLEERVEEAPDEEAARAAAELALRFAKLAGDEELERLIEELLEELRSSSSS
B2: il2ra_site2_3nfp_normal_mot_HHH_b1_00660_af2_000000090_0001_40_57_H_._HHH_b2_06268_af2_0001_0000300014_0000001_0 (protein)
chain: SSSSDEEEEQVEKLYEEAKRLLEEGDPFRAFAVLSDARELAARLGNEELAQKLARLAAEIYSSSS
B3: il2ra_site2_2erj_normal_mot_HHH_b2_02430_000000062_0001_23_40_H_._HHH_b1_00942_af2_0001_0000400038_0000001_0 (protein)
chain: SSSSNEELHELFRLAAKLAELVYRGDEEQFEKVFRELEELIEKLNSENAKEVLEWLREHLHSSSS
B4: il2ra_site2_3nfp_sap_17_mot_HHH_b1_06677_000000111_0001_20_36_H_._036bed11a46af16b1bcff1c055f4941a_0001_af2_0001_0000400013_0000001_0_0001 (protein)
chain: DEEKELEEKAKEAVEKQDPELAFEVTREAALDPEAWEELLRVLEELNNALELYRLAAEYYKKRVS
B5: il2ra_site2_2erj_normal_mot_HHH_b1_05749_af2_000000058_0001_23_39_H_._HHH_b1_03571_af2_0001_0000100007_0000001_0 (protein)
chain: SSSSDEELRELFELAVRILALIARGNPEEAERLLKELKELAEETNSENVKELVEFLEERLRSSSS
B6: il2ra_site2_2erj_sap_11_mot_HHH_b2_06236_000000050_0001_39_52_H_._HHH_b2_02704_0001_0000200013_0000001_0_0001 (protein)
chain: SSSSDEASRISVEAFRRARELFKRGNPEEAREILEEAIRLLEELGDEDAAKTLESLLKLLSSSSS
B7: il2ra_site1_1z92_normal_mot_HHH_b1_05118_af2_000000199_0001_39_52_H_._HHH_b1_04212_af2_0001_0000200012_0000001_0_af2pred_0001_af2pred (protein)
chain: SSSSSDEQELFEEVAELFEEAAKIRDQEERKRLLEEALELARQANNPLLEELVERMLKALSSSSS
B8: il2ra_site2_2erj_sap_15_mot_HHH_b1_01239_000000175_0001_43_57_H_._HHH_b1_06544_0001_0000200010_0000001_0_0001 (protein)
chain: SSSSSDRLREAYRLAVEVMHLLARGDEEEAERLAEEVQRLLEELGTPEAAEMLRELLRILSSSSS
B9: il2ra_site1_2b5i_sap_13_mot_9a773f325bc24391a11cd301277c1e75_0001_1_000000041_0001_1_15_H_._06d6c94188ba5cb0f575164e5db69022_0001_0001_0000300013_0000001_0_0001 … (protein)
chain: SSSSSEIEDEIYDLYKEALAAKRAGKHEEAKKLLEEAIKLAKEANDEKLVAELERFLTLLSSSSS
B10: il2ra_site1_2b5i_sap_25_mot_0e5a94e4a5addaac739760efb25f0f5d_0001_000000246_0001_18_32_H_._HHH_b2_02129_0001_0000200019_0000001_0_0001_af2pred_dldesign_0_af2pre … (protein)
chain: SSSSMSPRELARALFERARALLEAKEDPLLARRLALLARRIARRAGDEELVAEIDALLERLSSSS
B11: il2ra_site1_1z92_sap_19_mot_ems_3hM_2358_af2_000000278_0001_1_21_H_._HHH_b2_00289_af2_0001_0000400016_0000001_0_0001_af2pred_0001_af2pred_1_swapped (protein)
chain: SSSSSEEEKEAEKIVEELVEEFGLDEEAKEALRLDAERALENGISPKSIRRALEDAARRTSSSSS
B12: il2ra_site1_1z92_sap_23_mot_HHH_b1_05862_af2_000000270_0001_22_38_H_._HHH_b1_00476_0001_0000100006_0000001_0_0001 (protein)
chain: SSSSSAREYIEEMARALFRTIEAKGNPRAREMLEWLLRQARILGDEELRRLIEELLEELRSSSSS
B13: il2ra_site2_2erj_sap_26_mot_HHH_b1_04859_000000124_0001_24_41_H_._dd4073a288970bb258a5370782f75e7e_0001_1_0001_0002300117_0000001_0_0001 (protein)
chain: SSSDKEEAEELYEKARELLERGNPEEALRVLREAATLAFESGDEELFRKLDELAHEIARAGSSSS
B14: il2ra_site1_2b5i_normal_mot_2cbe48e66a1f39b3fed734b245ab0a04_0001_000000015_0001_17_31_H_._HHH_b2_02110_0001_0000200009_0000001_0_af2pred_dldesign_0_af2pred (protein)
chain: SSSSSSDPRARVRALLEKAETLKDEVEKHKVLSEALYLARATGDEALLAEVERKAAELSSSSSSS
B15: il2ra_site1_1z92_sap_15_mot_HHH_b1_06078_000000124_0001_1_18_H_._HHH_b1_06833_af2_0001_0000100001_0000001_0_0001 (protein)
chain: DEELEELLERVEKGDPEAREELLELLSKLMGSPPEAVEADLERTERFFGDPSQALKALIQIARKL
B16: il2ra_site1_1z92_sap_29_mot_HHH_b1_08133_000000119_0001_1_19_H_._HHH_b2_01664_0001_0000100002_0000001_0_0001 (protein)
chain: SSSSSTERAIRWALELLRAAERLNNEEQQEFLVRDARMLAERSNNPEARKLVEEMEELLGSSSSS
B17: il2ra_site2_3nfp_sap_16_mot_HHH_b2_02942_af2_000000138_0001_1_15_H_._ems_p1-15H-GBL-16H-GBL-14H_0089_0001_0001_0001_0001_0000300013_0000001_0_0001 (protein)
chain: SSSSDRELAEEVIESARTALELGNPEKARLALELARAHALLLGDEELREEIEKLLREVEELSSSS
B18: il2ra_site2_2erj_sap_35_mot_HHH_b1_08609_af2_000000264_0001_43_56_H_._3ee87299db9bf54915f2e612e5595e5c_0001_1_0001_0000100002_0000001_0_0001_af2pred_0001_1_af2p … (protein)
chain: SSSSDHEEELRLASARNAAEIALEEGDEEEARLLLELFLELLEELGDEEILEELEEFLRRISSSS
B19: il2ra_site2_2erj_normal_mot_6bd1339e93f6fdda22195c76da45ec5d_0001_000000136_0001_37_51_H_._HHH_b2_01001_0001_0000200004_0000001_0 (protein)
chain: SSSSSDEVEERVEELLEEARQIDDPAERYSVLSEAAELALENDDEEALRLIREVFAELAQSSSSS

What follows are binders tested against il2ra, P01589 (assay: yeast display titration).

Apparent Kd, inactive:
B1 no binding seen
B2 no binding seen
B3 no binding seen
B4 no binding seen
B5 no binding seen
B6 no binding seen
B7 no binding seen
B8 no binding seen
B9 no binding seen
B10 no binding seen
B11 no binding seen
B12 no binding seen
B13 no binding seen
B14 no binding seen
B15 no binding seen
B16 no binding seen
B17 no binding seen
B18 no binding seen
B19 no binding seen

Fetched one by one from the list above:
Apparent Kd, inactive:
B13 no binding seen
B3 no binding seen
